Measured data: PubChem BioAssay AID504764 (Drosophila RNAi Screening Center, 2011)
Aim: 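Genome-wide screen for regulators of Notch-driven gene expression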 (primary screen). Cell system: Drosophila Kc167 cells. Knock-down reagent: long dsRNA against Drosophila genes. Timing: about 5 days (4 days dsRNA, then 24 h after transfection). Challenge: transfection of constitutively active membrane-tethered Notch lacking the extracellular domain, read 24 h later. Detection: 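Firefly luciferase from an E(spl)m3 reporter with active Notch, plus control-promoter and uninduced reporter wells for normalisation; unnormalised counts, duplicate wells a and b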. Reading the numbers: induced reporter light, run 1, well a and induced reporter light, run 1, well b: higher = more light from the Notch target reporter with active Notch; control promoter light, run 1, well a and control promoter light, run 1, well b: higher = more light from the viral control promoter (cell number, transfection, viability); uninduced reporter light, run 1, well a: higher = more light from the Notch target reporter without active Notch. Hit rule: 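Wells with low control signal or poorly matching duplicates excluded; duplicates averaged; per source plate, z beyond ±2 for induced/control log2 ratio or beyond ±1.8 for induced/uninduced marks a hit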. Calls: active = modifier hit (raised or lowered Notch signal); inactive = not a hit.
The screen tested about 22,000 reagents; this is a random part of those that have a named target and a result. Of all reagents, 403 (1.9%) got an active call. 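Unnormalised raw counts per well; ratio z-scores behind the hit calls and whether each hit raises or lowers signal are not deposited.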 Reagents against one gene are numbered here. The record does not give: the amount of reagent.

Gene	reagent	induced reporter light, run 1, well a	induced reporter light, run 1, well b	control promoter light, run 1, well a	control promoter light, run 1, well b	uninduced reporter light, run 1, well a	call
Svil (Supervillin)	1	2.52e5	2.02e5	2.16e5	2.06e5	16665	inactive
Svil (Supervillin)	2	86220	83040	1.46e5	1.69e5	7885	inactive
Svil (Supervillin)	3	85660	99260	1.21e5	1.39e5	8535	inactive
Svil (Supervillin)	4	7435	5735	14160	12805	2040	inactive
Svil (Supervillin)	5	95835	1.29e5	1.40e5	1.14e5	7240	inactive
CG12535	1	1.45e5	1.35e5	2.18e5	1.86e5	6840	inactive
CG1636	1	2.04e5	1.66e5	2.62e5	2.41e5	11575	inactive
CG13564	1	1.49e5	1.54e5	1.69e5	1.50e5	11870	inactive
Ctl1 (Choline transporter-like 1)	1	1.02e5	1.25e5	2.20e5	1.86e5	11890	inactive
Cpr66Cb (Cuticular protein 66Cb)	1	2.01e5	2.03e5	2.58e5	2.24e5	12042	inactive
CG8401	1	1.06e5	1.05e5	1.99e5	2.29e5	8720	inactive
CG9727	1	1.24e5	1.27e5	89425	86935	7825	inactive
CG30016	1	2.21e5	2.59e5	3.18e5	3.10e5	26485	inactive
Vha44 (Vacuolar H[+] ATPase 44kD subunit)	1	1.18e5	1.19e5	2.05e5	2.47e5	8420	inactive
Vha44 (Vacuolar H[+] ATPase 44kD subunit)	2	1.55e5	1.38e5	1.46e5	1.36e5	13320	inactive
CG3650	1	1.87e5	1.53e5	1.76e5	1.28e5	13188	inactive
CG7886	1	2.58e5	2.82e5	2.37e5	1.79e5	18485	inactive
Lsp1alpha (Larval serum protein 1 alpha)	1	48235	41495	52775	38125	3465	inactive
CG11327	1	1.68e5	97385	1.54e5	1.42e5	9835	inactive
Pka-C2 (Protein kinase, cAMP-dependent, catalytic subunit 2)	1	66065	59445	1.28e5	1.27e5	6230	inactive
Hs3st-B (Heparan sulfate 3-O sulfotransferase-B)	1	1.05e5	1.03e5	1.01e5	1.49e5	13145	inactive
CG8738	1	1.67e5	1.77e5	1.84e5	1.91e5	17125	inactive
Sgs3 (Salivary gland secretion 3)	1	1.72e5	1.64e5	2.41e5	1.86e5	10050	inactive
CG9150	1	88980	68420	86885	1.01e5	5195	inactive
CG42710	1	1.21e5	1.13e5	1.32e5	1.21e5	9742	inactive
CG14971	1	98265	1.18e5	77780	29960	8530	inactive
CG14085	1	1.14e5	87090	93415	95205	8830	inactive
CG42260	1	86330	68280	66475	62755	8420	inactive
CG42260	2	2.05e5	1.78e5	1.89e5	1.95e5	12120	inactive
CG42260	3	1.49e5	1.42e5	1.73e5	1.67e5	10270	inactive
Cpr65Ea (Cuticular protein 65Ea)	1	1.71e5	2.34e5	2.37e5	2.57e5	12655	inactive
Treh (Trehalase)	1	1.65e5	2.10e5	1.76e5	1.78e5	12790	inactive
CG12224	1	1.11e5	93600	1.23e5	66820	6925	inactive
GrlHz (Gustatory receptor-like Holozoa)	1	1.04e5	97540	82565	81540	7782	inactive
CG5568	1	91750	1.07e5	70155	29125	8435	inactive
CG2310	1	1.58e5	1.33e5	2.25e5	2.18e5	12205	inactive
alka (alkaliphile)	1	1.68e5	1.32e5	1.96e5	1.88e5	12470	inactive
CG11191	1	1.20e5	1.15e5	92515	84345	11255	inactive
Hs2st (Heparan sulfate 2-O-sulfotransferase)	1	2.09e5	1.91e5	1.92e5	2.28e5	16940	inactive
Ilp2 (Insulin-like peptide 2)	1	1.21e5	1.35e5	94830	66260	12920	inactive
CG42450	1	83955	96790	99505	1.13e5	9160	inactive
Ran-like	1	1.47e5	1.26e5	1.00e5	1.05e5	10685	inactive
vnd (ventral nervous system defective)	1	82250	91455	1.08e5	1.26e5	7695	inactive
vnd (ventral nervous system defective)	2	1.17e5	1.16e5	1.98e5	2.23e5	8838	inactive
Camp (Cathelicidin-like antimicrobial protein)	1	1.70e5	1.12e5	1.45e5	1.77e5	10232	inactive
CG15020	1	1.68e5	1.41e5	1.89e5	1.54e5	5305	inactive
CG12519	1	2.50e5	1.27e5	1.12e5	85585	9315	inactive
CG12519	2						inactive
CG42365	1	51020	41790	45955	37155	3238	inactive
Drip	1	97575	1.13e5	1.40e5	1.54e5	10255	inactive

A few values from the list.
For “control promoter light, run 1, well a”, CG8738 is entered as 1.84e5
CG7886, induced reporter light, run 1, well b → 2.82e5
CG3650, call: inactive
For “call”, CG9150 reads inactive
Under “call”, CG2310 reads inactive
Value for CG14971 in “control promoter light, run 1, well b”: 29960
